Experimental data: patent US20230138752A1, “PLASTICIZERS TO IMPROVE RELEASE PERFORMANCE OF AMORPHOUS SOLID DISPERSIONS” (Purdue Research Foundation, priority 2021, published 2023)
Some entries share one result that the patent states for a list of compounds. At least one compound was matched to its structure with a doubt left.

Test: Surface normalized dissolution of ASD tablets (release, limit of congruency)
Type: physicochemical
Conditions: LED 10% DL, 10% w/w plasticizer
Experimental: All dissolution experiments were conducted in 50 mM phosphate buffer pH 6.8 prepared by dissolving 3.52 g of sodium phosphate monobasic monohydrate and 3.48 g of sodium phosphate dibasic anhydrous to 1L with Milli-Q water. The pH was adjusted to pH 6.8 if needed using HCl or NaOH.
Surface normalized dissolution was employed to evaluate the release performance of the ASDs and to calculate the normalized release rate. A Hanson Vision G2 dissolution tester with a Vision heater (Teledyne Hanson Chatsworth, CA) was utilized. A tablet was prepared immediately prior to the dissolution test by compressing 100 mg of ASD in an 8 mm die at 2 500 psi for 60 seconds yielding a tablet surface are of 50 mm^2. The temperature was maintained at 37° C., the rotation speed was 100 rpm, and the dissolution medium was 50 mM phosphate buffer pH 6.8 degassed and pre-equilibrated at 37° C. 100 to 200 μl of sample was withdrawn every 5 min for the initial 20 minutes, then every 10 minutes until 60 minutes and finally at 75, 90 and 120 minutes. […]
The concentration of API and polymer during the dissolution was assessed by high performance liquid chromatography (HPLC) using an Agilent 1100 system (Agilent Technologies, Santa Clara, Calif.). […]
The surface normalized dissolution rate (R) was calculated based on the mg released versus time profile. […]

CCCCOC(=O)CC(CC(=O)OCCCC)(OC(C)=O)C(=O)OCCCC [TBAC, Tributyl-o-acetylcitrate]
total release of LED: less than 30%
